Assay results: PubChem BioAssay AID2417 (National Center for Advancing Translational Sciences (NCATS), 2010)
Out of some 140,000 compounds screened, about 4,300 (3.1%) were called active. Inconclusive results, whose numbers are uncertain, are shown with a selection of clear calls.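 How the source made its calls: active means readout at or below -70, meaning at least 70% loss of cells showing the perinucleolar compartment, a nuclear body marking cancer cells; inconclusive means readout between -30 and a set limit; inactive means the rest.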

Assay: High Content Assay for Compounds that inhibit the Assembly of the Perinucleolar Compartment;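 further: plate controls were DMSO wells for no effect and camptothecin positive control wells for full effect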
Conditions: PC3M PTB-GFP, PNC prevalence imaging, 16 h; at 10 µM; hits give low values
In short: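 Read-out is percentage of cells bearing a perinucleolar compartment, from automated 20x imaging of fixed, Hoechst-stained PC3M PTB-GFP cells. Cells were seeded 4 h, then exposed 16 h to compound (23 nl of library stock) in duplicate plates.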

| Compound | activity change (PNC), negative = inhibition |
| --- | --- |
| N=c1c(C(=O)NC2CCCC2)cc2c(=O)n3ccccc3nc2n1C1CCCC1 | inactive: 92.2% |
| COc1ccc(/C=C2\SC(=O)N=C2N)cc1 | active: -104% |
| CCCOC(=O)c1ccc(NC(=O)c2ccoc2C)cc1 | inconclusive: -55.2% |
| Cc1cnc(NC(=O)CSc2c(Cl)cccc2Cl)s1 | inactive: 79.3% |
| CC1(C)Cc2cccc(OCC(=O)O)c2O1 | inconclusive: -57.9% |
| CCN1CCN(Cc2ccc(NC(=O)CC3Oc4ccc(C)cc4NC3=O)cc2)CC1 (stereo not given) | inconclusive: -55.6% |
| CCOC(=O)N1CCC(N2C(=O)c3ccccc3C2Nc2cccnc2)CC1 (stereo not given) | active: -85.7% |
| COc1ccc(/C=C/C(=O)O)cc1COc1ccccc1C | inconclusive: -37.6% |
| O=C(NCc1cccnc1)C1CC(=O)N(c2ccc(F)cc2)C1 (stereo not given) | inconclusive: -34.2% |
| CN1CCN(C(=O)c2ccc(CN3CCOCC3)cc2)CC1 | active: -92.7% |
| COc1c(Cl)ccc(Cl)c1C(=O)NC(=O)N1CCOCC1 | inconclusive: -33.7% |
| O=C(OC(C(=O)NC1CCCCC1)c1ccccn1)c1cccs1 (stereo not given) | inconclusive: -35.9% |
| CCCCC(CC)CNC(=O)c1ccc2c(c1)OCO2 (stereo not given) | inconclusive: -37.1% |
| Cc1ccc(S(=O)(=O)N2CCN(CC(=O)N/N=C\C(Cl)=C\c3ccccc3)CC2)cc1 | inconclusive: -67% |
| CSC1=N/C(=C\C=C\c2cccs2)C(=O)S1 | inconclusive: -74.8% |
| O=[N+]([O-])c1nn(-c2ccc3c(c2)OCCO3)n(O)c1=NCc1ccc(F)cc1 | inactive: 84% |
| CCNC(=O)CON=C1c2ccccc2-c2ccccc21 | inactive: 9.31% |
| CC(C)(C#CCN1CCCC1)OCCC#N | inconclusive: -35.8% |
| COCCn1c(SCC(=O)Nc2ccc(Cl)c(S(=O)(=O)N(C)C)c2)nc2ccccc21 | inconclusive: -36.7% |
| N#CC1=C(N)Oc2n[nH]c(-c3ccncc3)c2C1c1ccsc1 (stereo not given) | inconclusive: -51.2% |
| CCCCOC(=O)Nc1ccccc1C(=O)N1CCCC1 | active: -113% |
| CCc1nnc2c(N(C)C)nc3ccccc3n12 | inconclusive: -52.5% |
| COC(=O)Sc1nc(N2CCOCC2)c2c(c1C#N)CC(C)(C)OC2 | active: -116% |

As entered above.
For activity change (PNC), negative = inhibition, COc1c(Cl)ccc(Cl)c1C(=O)NC(=O)N1CCOCC1 has the entry inconclusive: -33.7%
For activity change (PNC), negative = inhibition, CCc1nnc2c(N(C)C)nc3ccccc3n12 has the entry inconclusive: -52.5%

Continued:

| Compound | activity change (PNC), negative = inhibition |
| --- | --- |
| CCCn1c(SCC(=O)N2CCCCC2)nnc1-c1ccco1 | inconclusive: -31.3% |
| Nc1cccc2c1C(=O)N(C(=O)c1ccc(S(=O)(=O)N3CCCCCC3)cc1)C2=O | inconclusive: -44.6% |
| Brc1ccc(OCc2nnc(SCC3CCCCC3)o2)cc1 | inconclusive: -35.4% |
| COc1cc2c(cc1NC(=O)CN1CCN(S(=O)(=O)c3ccc(C)cc3)CC1)oc1ccccc12 | inconclusive: -33.5% |
| CCOC(=O)/C(C#N)=C/c1ccc(OCC(=O)Nc2ccc(OC)cc2)c(OC)c1 | inactive: -7.64% |
| C=CCc1c(C)nc(C)nc1N/N=C/c1ccc([N+](=O)[O-])cc1 | inactive: 48.5% |
| COc1ccc(C2=NN(C(=O)CSc3nnc(-c4ccccc4F)o3)C(c3ccco3)C2)cc1 (stereo not given) | inconclusive: -46% |
| O=C(Nc1nccs1)c1ccc(COc2ccccc2Br)o1 | active: -87.7% |
| O=C(CSc1n[nH]c(-c2ccccc2)n1)c1ccc(O)c(O)c1 | inactive: 5.23% |
| O=C(O)CCC(=O)N1N=C(c2c(-c3ccccc3)c3cc(Cl)ccc3[nH]c2=O)CC1c1cccs1 (stereo not given) | inactive: -27.7% |
| CCOc1ccc(N2C(=O)CC(N3CCN(C(=O)CN4CCCC4)CC3)C2=O)cc1 (stereo not given) | active: -114% |
| O=C(CN1CCCCC1)Nc1cccc(Oc2ccccc2)c1 | active: -106% |
| S=C(NCc1ccncc1)Nc1cccc(Cl)c1 | inconclusive: -57% |
| Cc1ccc(NC(=O)c2cccc(OCc3c(C)noc3C)c2)cc1S(=O)(=O)Nc1ccccc1Cl | inconclusive: -45.9% |
| O=C(CC(c1ccccc1)c1ccccc1)NCC1CCCO1 (stereo not given) | inactive: 22.1% |
| Cc1nc(SCc2nnc(-c3ccc(Cl)cc3)o2)c2c3c(sc2n1)CCC3 | inconclusive: -58.2% |
| COc1ccccc1NCCC(=O)OCC(=O)Nc1ccc(Cl)cn1 | inconclusive: -54.6% |
| CCn1c(SCC(=O)Nc2cc(C)on2)nc2c1c(=O)n(C)c(=O)n2C | inconclusive: -41.7% |
| CC(C)Nc1nnc(SCC(=O)c2c(N)n(Cc3ccccc3)c(=O)n(C)c2=O)s1 | inconclusive: -32.9% |
| CC1=C(C#N)C(=O)OC(C)(C)C1 | inconclusive: -61.7% |
| O=C(Nc1sc2c(c1C(=O)O)CCC2)c1ccccc1 | inactive: -10.6% |
| COc1ccc(C(=O)NC(=S)N(Cc2ccccc2)Cc2ccccc2)cc1 | inconclusive: -59.7% |
